Measured values published in publication PMC4756298.
These are yes or no findings as the source states them, for the method shown. In cells and extracts the contact can be indirect. Some binding calls cover weakened binding; strength is not graded here. For part of these data: Sequences can lack the tags named with a protein.

T1: FLAG-Pemt (UniProt Q61907)
T1 sequence: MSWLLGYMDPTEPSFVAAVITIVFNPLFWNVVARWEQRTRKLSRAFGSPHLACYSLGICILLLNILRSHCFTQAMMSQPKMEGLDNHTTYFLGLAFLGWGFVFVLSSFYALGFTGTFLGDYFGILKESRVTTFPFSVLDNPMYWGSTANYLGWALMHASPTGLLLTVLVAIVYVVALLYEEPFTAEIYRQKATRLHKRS

B1: Phosphatidylethanolamine N-methyltransferase (Pemt), endogenous in mouse liver nuclei (protein, UniProt Q61907-1 1-199)
chain: T1 sequence
B2: myc-CHC (1074–1406) (domain or fragment, UniProt Q68FD5 1074-1406)
chain: KFDVNTSAVQVLIEHIGNLDRAYEFAERCNEPAVWSQLAKAQLQKGMVKEAIDSYIKADDPSSYMEVVQAANASGNWEELVKYLQMARKKARESYVETELIFALAKTNRLAELEEFINGPNNAHIQQVGDRCYDEKMYDAAKLLYNNVSNFGRLASTLVHLGEYQAAVDGARKANSTRTWKEVCFACVDGKEFRLAQMCGLHIVVHADELEELINYYQDRGYFEELITMLEAALGLERAHMGMFTELAILYSKFKPQKMREHLELFWSRVNIPKVLRAAEQAHLWAELVFLYDKYEEYDNAIITMMNHPTDAWKEGQFKDIITKVANVELYYK
B3: myc-CHC (1267–1513) (domain or fragment, UniProt Q68FD5 1267-1513)
chain: RLAQMCGLHIVVHADELEELINYYQDRGYFEELITMLEAALGLERAHMGMFTELAILYSKFKPQKMREHLELFWSRVNIPKVLRAAEQAHLWAELVFLYDKYEEYDNAIITMMNHPTDAWKEGQFKDIITKVANVELYYKAIQFYLEFKPLLLNDLLMVLSPRLDHTRAVNYFSKVKQLPLVKPYLRSVQNHNNKSVNESLNNLFITEEDYQALRTSIDAYDNFDNISLAQRLEKHELIEFRRIAAY

Assays:
[1] = molecular target: Clathrin heavy chain (CHC), endogenous in mouse liver nuclei (mouse (endogenous in liver)) (UniProt Q68FD5); assay: co-IP; nuclear protein of liver samples (STD and HFHS diets) immunoprecipitated with anti-CHC antibodies, blotted with anti-Pemt antibodies
FLAG-Pemt = molecular target: T1, FLAG-Pemt; assay: co-IP; FLAG-Pemt and myc-CHC segments co-expressed in NIH3T3 cells; immunoprecipitated by anti-FLAG antibody, blotted with anti-myc antibody

Binder	binding [1]	binding (FLAG-Pemt)
B1	binds	–
B2	–	binds
B3	–	binds
